# The supplement of paper PMC4635364
# Where a name gives a salt, the structure may show the parent alone. Some of the results follow. This data set is noisy: repeats of one test often differ as much as different tests do.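 ReNCell VM, a human fetal ventral-midbrain neural progenitor line, was differentiated without mitogens. Blinded raters scored images stained for doublecortin (early neurons) or tyrosine hydroxylase (dopaminergic neurons) against untreated wells (0 = no change). Scores were averaged across repeats and both raters, and compounds averaging 2 or more were selected as hits for retesting.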 *1 amine or outer side, *2 acyl side, *3 side chain or, on linkers, in order; H or OH if unused. Where a SMILES comes first, the peptide text is derived from it. Bridges are numbered along the chain shown (N, C = ends). Roman numbers before positions name the chains, in order. [ ]: non-standard residue; d: D form. Actinocin(9to1) = Cc1c2oc3c(C)ccc(C(=O)[*:1])c3nc-2c(C(=O)[*:2])c(N)c1=O; NMeV = CN[C@H](C(=O)O)C(C)C; Sar = CNCC(=O)O
# Test system: ReNCell VM
# Assay: neuronal differentiation score (DCX+ cell fraction vs untreated, manual image score) (score (-3 to 3)); higher = more neuronal differentiation
# Conditions: library: Tocriscreen; 2 uM; 2 weeks
row,Structure (SMILES),neuronal differentiation score
1,O=C(O)c1ccccc1Nc1cccc(OCc2ccc3ccccc3n2)c1 [SR 2640 hydrochloride],inactive: 0
2,COc1ccc(CC(=O)NC(/N=C(\NC#N)Nc2cccc3ncccc23)C(C)(C)C)cc1OC (configuration not stated),inactive: 0
3,Cc1ccc(Sc2cncc3sc(C(N)=O)cc23)cc1,inactive: 0
4,Cn1cccc1/C=C1\C(=O)NC(=O)c2ccccc21,inactive: 0

# Test system: ReNCell VM
# Assay: dopaminergic neuron differentiation score (TH+ cell fraction vs untreated, manual image score) (score (0 to 3)); higher = more TH+ dopaminergic neuron differentiation
# Conditions: library: LOPAC; 2 uM; 4 weeks; BDNF 10 ng/ml + GDNF 10 ng/ml
row,Structure (SMILES),dopaminergic neuron differentiation score
1,CC(C)(C)NCC(O)c1ccc(O)c(CO)c1 (configuration not stated) [Albuterol hemisulfate],inactive: 0
2,O=C(O)CCC(=O)N1CCC[C@H]1C(=O)O [N-Succinyl-L-proline],inactive: 0
3,O=C(NCCO)c1ccc2c(c1)nc(Nc1cccc(Cl)c1)c1ccncc12 [CK2 Inhibitor 2],inactive: 0
4,"O=C(O)[C@@H]1C[C@H](C(=O)O)N1 [cis-Azetidine-2,4-dicarboxylic acid]",inactive: 0
5,"Nc1c2c(nc3ccccc13)CCCC2 [9-Amino-1,2,3,4-tetrahydroacridine hydrochloride]",inactive: 0

# Same assay, conditions: library: Prestwick; 2 uM; 4 weeks; BDNF 10 ng/ml + GDNF 10 ng/ml
row,Structure (SMILES),dopaminergic neuron differentiation score
1,COc1cc2nc(N(C)CCCNC(=O)C3CCCO3)nc(N)c2cc1OC (configuration not stated) [Alfuzosin hydrochloride],inactive: 0
2,Clc1ccc(Nc2nnc(Cc3ccncc3)c3ccccc23)cc1 [Vatalanib],inactive: 0
3,C[n+]1ccccc1/C=N/O [Pralidoxime chloride],inactive: 0
4,C[C@H]1[C@H](NC(=O)/C(=N\OC(C)(C)C(=O)O)c2csc(N)n2)C(=O)N1S(=O)(=O)O [Aztreonam],inactive: 0
5,CCCC(CCC)C(=O)O [Valproic acid],inactive: 0
6,O=C(O)c1ccccc1Nc1cccc(C(F)(F)F)c1 [Flufenamic acid],inactive: 0
7,N#Cc1ccc(C2CCCc3cncn32)cc1 (configuration not stated) [Fadrozole hydrochloride],inactive: 0

# Same assay, conditions: library: Spectrum; 2 uM; 4 weeks; BDNF 10 ng/ml + GDNF 10 ng/ml
row,Structure (SMILES),dopaminergic neuron differentiation score
1,"Cc1c2oc3c(C)ccc(C(=O)N[C@@H]4C(=O)N[C@H](C(C)C)C(=O)N5CCC[C@H]5C(=O)N(C)CC(=O)N(C)[C@@H](C(C)C)C(=O)O[C@@H]4C)c3nc-2c(C(=O)N[C@@H]2C(=O)N[C@H](C(C)C)C(=O)N3CCC[C@H]3C(=O)N(C)CC(=O)N(C)[C@@H](C(C)C)C(=O)O[C@@H]2C)c(N)c1=O (I: T[dV]P[Sar][NMeV] / II: T[dV]P[Sar][NMeV]; ester I:1-I:C, II:1-II:C; linker I:N-II:N via Actinocin(9to1))",inactive: 0
2,C/C=N/N(C)C=O,inactive: 0
3,CCC(C)(C)c1ccc(CC(C)CN2C[C@@H](C)O[C@@H](C)C2)cc1 (some centres not stated),inactive: 0
4,CCc1oc2ccccc2c1C(=O)c1cc(Br)c(O)c(Br)c1,inactive: 0
5,Cc1cc(=O)n(-c2ccccc2)n1C,inactive: 0
6,Nc1nc(/C(=C/CC(=O)O)C(=O)N[C@@H]2C(=O)N3C(C(=O)O)=CCS[C@H]23)cs1,inactive: 0
7,CCCCC(CC)COc1ccc(-c2nc(-c3ccc(OC)cc3)nc(-c3ccc(OCC(CC)CCCC)cc3O)n2)c(O)c1 (configuration not stated),inactive: 0
8,COC(=O)c1c(C)c2c(c(C)c1O)OC(=O)c1c(C)c(Cl)c(O)c(Cl)c1O2,inactive: 0
9,COc1cc(C=CC(=O)O)cc(OC)c1O,inactive: 0
10,C=CC1=C(C)c2cc3[nH]c(cc4nc(cc5[nH]c(cc1n2)c(C)c5CCC(=O)O)C(CCC(=O)O)=C4C)c(C)c3C=C,inactive: 0
11,CO[C@H]1C[C@@H]2CC[C@@H](C)[C@@](O)(O2)C(=O)C(=O)N2CCCC[C@H]2C(=O)O[C@H]([C@H](C)C[C@@H]2CC[C@@H](O)[C@H](OC)C2)CC(=O)[C@H](C)/C=C(\C)[C@@H](O)[C@@H](OC)C(=O)[C@H](C)C[C@H](C)/C=C/C=C/C=C/1C,inactive: 0
12,"C[C@]12CC[C@@H](O)C[C@H]1CCc1ccccc12 [3alpha-HYDROXY-4,4-BISNOR-8,11,13-PODOCARPATRIENE]",inactive: 0
13,CC(O)Cn1cnc2c1c(=O)n(C)c(=O)n2C (configuration not stated),inactive: 0
14,CC(=O)O[C@@H]1C[C@@]2(C)C(CC[C@@H]2C(C)=O)C2CCC3=CC(=O)CC[C@]3(C)C21 (some centres not stated),inactive: 0
15,CN[C@@H]1[C@H](O[C@H]2[C@H](O[C@H]3[C@H](O)[C@@H](O)[C@H](N=C(N)N)[C@@H](O)[C@@H]3N=C(N)N)O[C@@H](C)[C@]2(O)C=O)O[C@@H](CO)[C@H](O)[C@H]1O,inactive: 1
16,O=C(COc1ccc(Cl)cc1)N1CCN(Cc2ccc3c(c2)OCO3)CC1,inactive: 0
17,C/C(=C(\CCOP(=O)(O)O)SC(=O)c1ccccc1)N(C=O)Cc1cnc(C)nc1N,inactive: 0
18,Cc1ncc([N+](=O)[O-])n1CC(O)CCl (configuration not stated),inactive: 0
19,O=C1CC[C@@H](C(=O)O)N1,inactive: 0
20,CN1[C@@H](CC(=O)c2ccccc2)CCC[C@H]1C[C@H](O)c1ccccc1,inactive: 0
21,CC(=O)OCC(=O)[C@@]1(OC(C)=O)[C@@H](C)C[C@H]2[C@@H]3C[C@H](F)C4=CC(=O)C=C[C@]4(C)[C@@]3(F)[C@@H](O)C[C@@]21C,inactive: 0

# Reformatted tab-delimited: part of the list above.
row	Structure (SMILES)	dopaminergic neuron differentiation score
10	C=CC1=C(C)c2cc3[nH]c(cc4nc(cc5[nH]c(cc1n2)c(C)c5CCC(=O)O)C(CCC(=O)O)=C4C)c(C)c3C=C	inactive: 0
11	CO[C@H]1C[C@@H]2CC[C@@H](C)[C@@](O)(O2)C(=O)C(=O)N2CCCC[C@H]2C(=O)O[C@H]([C@H](C)C[C@@H]2CC[C@@H](O)[C@H](OC)C2)CC(=O)[C@H](C)/C=C(\C)[C@@H](O)[C@@H](OC)C(=O)[C@H](C)C[C@H](C)/C=C/C=C/C=C/1C	inactive: 0
